Part of at least one peptide drawing is inferred or uncertain, most often the ends. Ends that are not written are not given here.
Experiments:
[1] = test system: efferent white adipose tissue sympathetic nerve activity (WAT-SNA); experiment: Effect of enhancing white adipose tissue sympathetic nerve activity (WAT-SNA), urethane-anesthetized rats, intragastric administration; type: in vivo, rat; conditions: 1 mL/300 g body weight intragastric, 0 minutes = 100%
[2] = test system: plasma free fatty acid (plasma FFA); experiment: Hydrolysis of neutral fat and release of free fatty acid to blood (plasma FFA), rats; type: in vivo, rat; conditions: 0.1 mg/mL LNDP, 1 mL/300 g body weight intragastric, six rats, 0 minutes = 100%
[3] = test system: efferent adrenal sympathetic nerve activity (ASNA); experiment: Effect of enhancing adrenal sympathetic nerve activity (ASNA), urethane-anesthetized rats, intragastric administration; type: in vivo, rat; conditions: 0.1 mg/mL LNDP, 1 mL/300 g body weight intragastric, 50 minutes after administration; 0 minutes = 100%
[4] = test system: efferent pelvic splanchnic nerve activity (PSNA); experiment: Effect of controlling pelvic splanchnic nerve activity (PSNA), urethane-anesthetized rats, intragastric administration; type: in vivo, rat; conditions: 0.1 mg/mL LNDP, 1 mL/300 g body weight intragastric, three rats, 60 minutes after administration; 0 minutes = 100%
[5] = test system: rat spontaneous urination; experiment: Rat spontaneous urination test (metabolism cage, 7 days ingestion from drinking); type: in vivo
Experimental: It was confirmed from Test Example 2 that LNDP promotes the efferent hypogastric nerve activity, and it was confirmed from Test Example 3 that LNDP inhibits the efferent the pelvic splanchnic nerve activity. Influence on the bladder, which is one of the internal organs dominated by these nerves, was therefore investigated.
Male Wistar rats which are 13 weeks old were received, and quarantined and acclimated in a thermostat animal room at 18 to 28° C. in a cycle including a 12-hour light period and a 12-hour dark period for 1 week, and ten 14- to 16-week-old rats per group were tested. An aqueous 0.1 mg/mL LNDP solution or water was ingested from drinking for 7 days, and the urination amount was measured as weight with an electronic balance installed under a urine-collecting opening in raising with a metabolism cage. The weight data of the electronic balance every minute were automatically inputted into a computer. The weight data of the electronic balance were chronologically confirmed as to each individual, an increase in weight was considered as one time of urination, and the difference between the maximum value and the immediately preceding minimum value was defined as one time of the urination amount. The total urination amount and the frequency of urination per day were found, and the urine amount per one time of urination (=the total urination amount per day/the frequency of urination per day) was calculated as to an individual of each group. In a statistical method for comparing two groups, the Student's t-test was performed when the uniformity of the variance was observed by the F-test, the t-test of Aspin-Welch was performed when the uniformity of the variance was not observed, and the rank sum test of Wilcoxson was performed as to the measured values including the frequency of urination. As to the comparison of the test substance and ingestion days with respect to each measured value, two-way analysis of variance (two-way ANOVA) with replication was performed.

[6] = test system: efferent hypogastric nerve activity (HGNA); experiment: Effect of enhancing hypogastric nerve activity (HGNA), urethane-anesthetized rats, intragastric administration; type: in vivo, rat; conditions: 1 mL/300 g body weight intragastric, 0 minutes = 100%; for HGNA maximum value (average ± standard error): three rats
[7] = aqueous 0.1 mg/ml LNDP solution from drinking for 7 days, relative to water group
[8] = aqueous 0.1 mg/ml LNDP solution from drinking for 7 days, ten rats per group

Sequence: NIPPLTQTPVVVPPFLQPE [LNDP, Asn-Ile-Pro-Pro-Leu-Thr-Gln-Thr-Pro-Val-Val-Val-Pro-Pro-Phe-Leu-Gln-Pro-Glu]
- WAT-SNA value ([1]; 0.001 mg/mL LNDP, one rat, 60 minutes after administration): 136.2%
- WAT-SNA maximum value (average ± standard error) ([1]; 0.1 mg/mL LNDP, three rats, 50 minutes after administration): 143.2±7.7%
- plasma FFA concentration minimum value (average ± standard error) ([2]; 30 minutes after administration): 96.0±14.3%
- plasma FFA concentration maximum value (average ± standard error) ([2]; 120 minutes after administration): 149.0±18.1%
- ASNA maximum value (average ± standard error) [3]: 145.9±8.2%
- PSNA minimum value (average ± standard error) [4]: 65.1±10.0%
- significant difference in urination amount per day vs water ingestion group ([5]; aqueous 0.1 mg/mL LNDP solution from drinking for 7 days): not observed
- Frequency of urination, % (water = 100) [5, 7]: 85%
- Urination amount per time, % (water = 100) [5, 7]: 18%
- Urination amount, % (water = 100) [5, 7]: 99%
- Frequency of urination, Average [5, 8]: 15.8 time/day
- Urination amount per time, Average [5, 8]: 1.41 g/time
- Urination amount, Average [5, 8]: 52.44 g/day
- HGNA value ([6]; 0.01 mg/mL LNDP, one rat, 60 minutes after administration): 113.5%
- HGNA maximum value (average ± standard error) ([6]; 0.01 mg/mL LNDP, 60 minutes after administration): 123.1±14.6%
- HGNA maximum value (average ± standard error) ([6]; 0.1 mg/mL LNDP, 50 minutes after administration): 128.5±6.9%
